Reference: US20210179715A1
These are yes or no findings as the source states them, for the method shown. Some binding calls cover weakened binding; strength is not graded here. For some assays here: Where a sequence is shown, tags or fusion partners need not be part of it.

Chains of the proteins cited; added tags and fusions are not shown. Residues count along the entry.
UniProt P07766, residues 23-126: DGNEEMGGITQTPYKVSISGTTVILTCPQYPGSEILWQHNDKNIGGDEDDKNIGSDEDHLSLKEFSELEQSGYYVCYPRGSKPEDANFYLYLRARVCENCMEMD

Tests used:
[1] = target: T1, cyno extracellular domain (ECD) of CD3 (cynomolgus monkey) (UniProt Q95LI5); test: BIAcore SPR
T1 sequence (looked up): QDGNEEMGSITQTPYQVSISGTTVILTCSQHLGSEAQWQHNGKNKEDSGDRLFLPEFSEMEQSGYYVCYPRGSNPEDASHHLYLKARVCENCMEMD

[2] = target: T2, human LY6G6D-Fc (human) (UniProt O95868); test: BIAcore SPR
T2 sequence: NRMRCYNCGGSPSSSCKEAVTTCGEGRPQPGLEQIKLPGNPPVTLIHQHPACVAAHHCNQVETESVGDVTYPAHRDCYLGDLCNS

[3] = target: human extracellular domain (ECD) of CD3 (human) (UniProt P07766); test: BIAcore SPR
[4] = target: T2, human LY6G6D-Fc (human); test: BIAcore SPR; as a TDB at 37 C
[5] = target: T2, human LY6G6D-Fc (human); test: BIAcore SPR; LY6G6D-Fc on chip; TDB flowed; 37 C

Measured: binding

B1: LY6G6D TDB comprising the anti-LY6G6D 20A12.QNTv12 arm (two-cell) and the anti-CD3 38E4v1 arm (bispecific antibody, V domains shown)
VH 1: EVQLLESGGGLVQPGGSLRLSCAASGFDFVNNAMIWVRQAPGKGLEWVSALSFADNTAYYATWASGRFTISRDSSKTTVYLQMNSLRAEDTAVYYCMRGDLWGPGTLVTVSS
VL 1: DIQMTQSPSTLSASVGDRVTITCQASESITRYLNWYQQKPGKAPKLLIYDASKLPSGVPSRFSGSGSGTEFTLTISSLQPDDFATYYCQSTSFRGRSYQNTFGGGTKVEIK
VH 2: EVQLVQSGAEVKKPGASVKVSCKASGFTFTSYYIHWVRQAPGQGLEWIGWIYPENDNTKYNEKFKDRVTITADTSTSTAYLELSSLRSEDTAVYYCARDGYSRYYFDYWGQGTLVTVSS
VL 2: DIVMTQSPDSLAVSLGERATINCKSSQSLLNSRTRKNYLAWYQQKPGQSPKLLIYWTSTRKSGVPDRFSGSGSGTDFTLTISSLQAEDVAVYYCKQSFILRTFGQGTKVEIK
binds: [1] | [2] | [3] | [4] | [5]
